Results are given in words; binding and its absence hold for the method and conditions named. In cells and extracts the contact can be indirect. Here binding means that the protein was enriched with, or labelled near, the bait; the list need not be complete. Where a sequence is shown, tags or fusion partners need not be part of it.

Protein sequences, listed by entry. Tags and fused reporters are not part of them.
UniProt O14939: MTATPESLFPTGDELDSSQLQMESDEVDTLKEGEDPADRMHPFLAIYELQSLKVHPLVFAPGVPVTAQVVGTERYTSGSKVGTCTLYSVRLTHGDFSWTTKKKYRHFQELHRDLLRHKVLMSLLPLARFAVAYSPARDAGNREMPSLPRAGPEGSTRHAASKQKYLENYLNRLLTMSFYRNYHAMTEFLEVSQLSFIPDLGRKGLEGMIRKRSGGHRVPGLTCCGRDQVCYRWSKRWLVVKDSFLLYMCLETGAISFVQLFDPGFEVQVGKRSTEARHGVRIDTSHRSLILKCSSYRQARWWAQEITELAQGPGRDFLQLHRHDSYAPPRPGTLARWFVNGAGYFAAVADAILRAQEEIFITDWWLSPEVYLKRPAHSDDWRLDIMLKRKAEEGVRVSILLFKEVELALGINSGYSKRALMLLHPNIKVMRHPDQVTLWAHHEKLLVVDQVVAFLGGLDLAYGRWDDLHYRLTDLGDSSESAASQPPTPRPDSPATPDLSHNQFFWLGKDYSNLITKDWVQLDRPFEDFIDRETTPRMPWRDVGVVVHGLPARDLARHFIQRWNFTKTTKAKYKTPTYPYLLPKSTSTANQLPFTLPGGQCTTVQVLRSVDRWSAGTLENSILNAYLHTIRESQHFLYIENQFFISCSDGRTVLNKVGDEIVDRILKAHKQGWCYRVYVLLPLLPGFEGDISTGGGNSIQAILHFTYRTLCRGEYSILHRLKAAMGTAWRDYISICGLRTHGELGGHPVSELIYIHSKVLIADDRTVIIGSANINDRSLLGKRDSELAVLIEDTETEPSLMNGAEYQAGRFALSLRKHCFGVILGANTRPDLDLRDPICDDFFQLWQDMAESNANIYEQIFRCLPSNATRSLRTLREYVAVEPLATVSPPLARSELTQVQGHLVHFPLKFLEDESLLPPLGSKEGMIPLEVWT

This assay addresses T1, ANKMY2 (not stated (Human ORFeome V5.1 library or DNASU plasmid)) (UniProt Q8IV38).
T1 sequence: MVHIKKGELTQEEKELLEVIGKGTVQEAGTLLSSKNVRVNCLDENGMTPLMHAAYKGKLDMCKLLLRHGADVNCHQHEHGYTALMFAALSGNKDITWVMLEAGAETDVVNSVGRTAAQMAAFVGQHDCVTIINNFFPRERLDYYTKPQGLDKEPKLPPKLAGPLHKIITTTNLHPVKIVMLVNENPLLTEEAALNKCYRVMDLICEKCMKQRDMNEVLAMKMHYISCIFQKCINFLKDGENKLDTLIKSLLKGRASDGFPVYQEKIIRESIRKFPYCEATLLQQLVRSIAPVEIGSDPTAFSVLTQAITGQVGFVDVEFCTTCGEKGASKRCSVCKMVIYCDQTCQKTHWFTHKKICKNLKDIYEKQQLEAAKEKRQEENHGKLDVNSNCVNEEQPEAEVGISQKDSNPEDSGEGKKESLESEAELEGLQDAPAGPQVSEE
Description: affinity purification with mass spectrometry; reverse TAP-MS with ANKMY2 as bait; cells and conditions not told.

For PLD2 (from UniProt O14939 1-933), the binding entry is recorded as “binds”.

(Values after publication PMC8864472.)
